We go through 1 substance from PMC8671394, “Paracrine FGFs target skeletal muscle to exert potent anti-hyperglycemic effects” (Nature Communications, 2021).

Protein sequences, listed by entry. Tags and fused reporters are not part of them. Residues count along the entry.
UniProt P11362, residues 22-822: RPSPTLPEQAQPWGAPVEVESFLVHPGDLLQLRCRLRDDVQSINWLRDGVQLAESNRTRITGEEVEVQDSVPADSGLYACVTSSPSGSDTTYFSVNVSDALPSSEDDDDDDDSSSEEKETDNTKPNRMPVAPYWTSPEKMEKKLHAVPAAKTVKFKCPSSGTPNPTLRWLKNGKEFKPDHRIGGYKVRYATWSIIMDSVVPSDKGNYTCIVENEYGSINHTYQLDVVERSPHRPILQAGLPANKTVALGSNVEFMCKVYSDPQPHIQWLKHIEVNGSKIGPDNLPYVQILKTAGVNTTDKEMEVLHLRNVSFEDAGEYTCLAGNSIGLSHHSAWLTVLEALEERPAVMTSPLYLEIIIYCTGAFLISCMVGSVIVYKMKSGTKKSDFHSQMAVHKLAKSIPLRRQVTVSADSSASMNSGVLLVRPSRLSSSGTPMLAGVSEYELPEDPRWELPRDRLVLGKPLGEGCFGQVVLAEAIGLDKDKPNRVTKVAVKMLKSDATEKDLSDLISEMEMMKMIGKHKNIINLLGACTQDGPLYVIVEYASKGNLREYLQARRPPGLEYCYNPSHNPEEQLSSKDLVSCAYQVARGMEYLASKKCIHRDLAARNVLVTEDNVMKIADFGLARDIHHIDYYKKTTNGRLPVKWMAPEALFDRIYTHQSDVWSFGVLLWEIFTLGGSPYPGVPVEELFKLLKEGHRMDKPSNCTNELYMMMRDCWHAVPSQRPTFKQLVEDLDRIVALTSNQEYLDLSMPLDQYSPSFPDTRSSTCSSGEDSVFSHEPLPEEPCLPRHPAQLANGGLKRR

No constants are given. Whether binding was seen depends on the method and setting. In cells and extracts the contact can be indirect. Some results given as binding are weak or reduced against the parent protein; the word gives no strength.

For the assay, the target named is human FGFR1c ectopically expressed on the surface of L6 myoblasts (human) (UniProt P11362). The assay is described as follows: proximity ligation; L6 rat skeletal myoblasts ectopically expressing human FGFR1c, stimulated with mFGF4 or rFGF4; FGFR1c dimerization on the cell surface.

“human FGFR1c ectopically expressed on the surface of L6 myoblasts (from UniProt P11362 22-822) (receptor)”: the binding entry was “binds”.
